Experimental findings from PMC7819943, “Rice protein-binding microarrays: a tool to detect cis-acting elements near promoter regions in rice” are described below.

This is one part of the list.

This assay addresses T1, OsSMF1 (Oryza sativa, UniProt Q6ZLB0 1-436).
T1 sequence: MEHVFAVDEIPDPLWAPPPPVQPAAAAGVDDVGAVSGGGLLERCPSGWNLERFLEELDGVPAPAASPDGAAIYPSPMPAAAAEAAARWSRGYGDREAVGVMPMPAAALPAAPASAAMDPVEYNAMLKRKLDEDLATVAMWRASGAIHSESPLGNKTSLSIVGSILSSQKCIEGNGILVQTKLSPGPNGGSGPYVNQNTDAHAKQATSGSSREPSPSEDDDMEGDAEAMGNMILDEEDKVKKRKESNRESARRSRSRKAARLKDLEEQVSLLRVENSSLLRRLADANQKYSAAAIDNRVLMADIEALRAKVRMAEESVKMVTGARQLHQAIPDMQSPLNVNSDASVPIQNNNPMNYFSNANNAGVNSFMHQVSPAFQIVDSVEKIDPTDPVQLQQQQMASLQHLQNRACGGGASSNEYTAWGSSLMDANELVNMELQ
Description: protein-binding microarray (RPBM); PBS, 2% BSA, 51.3 ng/ul salmon testes DNA, 50 uM zinc acetate, 200 nM TF, 25 C, 1 h; high values mean tight binding. The following applies: protein: recombinant; tags: N-terminal polyhistidine and DsRed monomer fusion (pET32a); chain copies: 2; label: CyDye5-dUTP incorporated in the synthesized complementary strand; 3' TTTTT single-stranded linker to array surface; dsDNA, one strand shown. The essentials:
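For the binding signal, per-feature fluorescence intensity was read in arbitrary units on an Axon 4000B scanner. Before scanning, a 2% BSA-blocked custom Agilent array made double-stranded with Cy5-dUTP was washed after 1 h at 25 °C with 200 nM protein and 50 µM zinc acetate. The proteins were Ni–NTA-purified transcription factors with N-terminal polyhistidine and DsRed fusions, expressed in E. coli BL21-CodonPlus.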
In the case of “ACACGTGGGACCCACGTGGGTCCCATGCTGACTCAGCTGCCGGAGTCACCTAGTGCAG”, the binding signal is 28100 fluorescence intensity (a.u.).
For the sequence “GGACGGCCGCACCAAGGCCGTCGACGTCACCGGCCCCGACCGGAGTCACCTAGTGCAG”, the binding signal was 4350 fluorescence intensity (a.u.).
As for “GCGCCCAACACTTCATTGGACAGTGGTTGTCATGAGTCTTCGGAGTCACCTAGTGCAG”, the figure is 3480 fluorescence intensity (a.u.); as for “CCCGTCACACGGTGACTCACACCGATCCACGCCGCCACCGCGGAGTCACCTAGTGCAG”, 10200 fluorescence intensity (a.u.).
As to “TGGCTGACTGACTGGCGGCGGCCATGTGGAGGTTGAAGGTCGGAGTCACCTAGTGCAG”, the binding signal is 3840 fluorescence intensity (a.u.).
As to “GCTAGTGGTCCCACATGTCAGCTGTGAGCGTACTCGCCTTCGGAGTCACCTAGTGCAG”, the binding signal is 3750 fluorescence intensity (a.u.).
Then “ATACACGCGCACACACACGTCACTACTTCACATGCAACACCGGAGTCACCTAGTGCAG”, with 15200 fluorescence intensity (a.u.); and “TCTGACTTTGTGACCTGGAATCATGGATATGTCATGGAGTCGGAGTCACCTAGTGCAG”, with 3940 fluorescence intensity (a.u.).
For the sequence “GGTTTAATCATTGACAAAATTAAACTGACTAGGAATGAAACGGAGTCACCTAGTGCAG”, the binding signal is 3570 fluorescence intensity (a.u.).
“ATCCTGCTTGACTCCAGCTGGTCACCGCGCTTGTCGAGCTCGGAGTCACCTAGTGCAG”: the binding signal is 3620 fluorescence intensity (a.u.).
Regarding “CTTTTGCCCTTCATGACAACCTAAACCCCAGCTTCAGAGTCGGAGTCACCTAGTGCAG”, the binding signal was 4230 fluorescence intensity (a.u.).
As for “CATGGATAATTTGTTTTGGAGTGACACACTGACACTGATGCGGAGTCACCTAGTGCAG”, the binding signal is 4020 fluorescence intensity (a.u.).
Turning to “CTAGATGGCCTTATTATCTCTACATCACACGTTATATCTACGGAGTCACCTAGTGCAG”, the binding signal is 3300 fluorescence intensity (a.u.).
Take “TGCTGACTATGATGCCACGTCAGCGAAACCACCCATATATCGGAGTCACCTAGTGCAG”: the binding signal was 23000 fluorescence intensity (a.u.).
Take “CAAAACGATCGGAGTTATCCGGAGACGCCACGTCAGCTAGCGGAGTCACCTAGTGCAG”: the binding signal was 25900 fluorescence intensity (a.u.).
Consider “ACAATGAACACACGTCAGGAAGTCACTCCGGTACAAGCCACGGAGTCACCTAGTGCAG”, for which the binding signal was 5160 fluorescence intensity (a.u.).
Take “AACATTCTGTTAGAGAATGATGTGGCATATAACTGTTGGTCGGAGTCACCTAGTGCAG”: the binding signal was 15500 fluorescence intensity (a.u.).
Then “ACAAGAAACTGGACAACTTCCACCGCCATCAATGACTCTGCGGAGTCACCTAGTGCAG”, with 3520 fluorescence intensity (a.u.); and “ATCACATAAAATTCCAGGGTTAATTGGATCCATGCTACTGCGGAGTCACCTAGTGCAG”, with 4010 fluorescence intensity (a.u.).
For “CTTGTCTGTCACCAGTTCATCACGCGATGTCGTCATAGCTCGGAGTCACCTAGTGCAG”, the binding signal is 5840 fluorescence intensity (a.u.).
Then “TCCACCACACGTGTCTATATCGCTTCCTTCCATTCCATCACGGAGTCACCTAGTGCAG”, with 7170 fluorescence intensity (a.u.); and “AATTACCACCCTAACTCAATTAGAAGCGGTTTTCAGCCTACGGAGTCACCTAGTGCAG”, with 52400 fluorescence intensity (a.u.); and “GTCGCCAATAGGGAGAGGCCAATCACCGTTCCTCGGCTCACGGAGTCACCTAGTGCAG”, with 3190 fluorescence intensity (a.u.).
As to “AGGACCAGCGTCGGGGATGGCGTCCACGTCACCGCATCCGCGGAGTCACCTAGTGCAG”, the binding signal is 14600 fluorescence intensity (a.u.).
Then “GTCGTTACATTTTGCTTAATCCAGTCATCCAGATAATCACCGGAGTCACCTAGTGCAG”, with 3200 fluorescence intensity (a.u.).
For the sequence “ACAGTGTCACTGCAGCTGCCACTCGCCACGCACGTGAACGCGGAGTCACCTAGTGCAG”, the binding signal was 5560 fluorescence intensity (a.u.).
Turning to “GTATTATACTAGTATAAGGTTTAGCGTGGGATGCGTGGGGCGGAGTCACCTAGTGCAG”, the binding signal was 3300 fluorescence intensity (a.u.).
Then “CGATTTTACCTTCTACGGAAGAACGGCTATGATGTGTCATCGGAGTCACCTAGTGCAG”, with 7030 fluorescence intensity (a.u.); and “TAGCAGCAGCACAGTGACGACGACGCTAGCTAAGGGCAGACGGAGTCACCTAGTGCAG”, with 36700 fluorescence intensity (a.u.); and “TTGGGAGCTCGCCGGTGACGTGGTATGTGTGTTGGTGGTGCGGAGTCACCTAGTGCAG”, with 21700 fluorescence intensity (a.u.).
In the case of “ACGAGCAACTTATATATTGTTGTACCGTTATACCCACCACCGGAGTCACCTAGTGCAG”, the binding signal was 3790 fluorescence intensity (a.u.).
Take “CCCAACCTCTCTCTCTCTCTCTCTCTCTCTCCTCCCACCCCGGAGTCACCTAGTGCAG”: the binding signal is 3170 fluorescence intensity (a.u.).
Take “AACTAGCACATATAATATTAGTGCAACTGGCATCTACACTCGGAGTCACCTAGTGCAG”: the binding signal was 3650 fluorescence intensity (a.u.).
Turning to “TTAGGCGGCCTGACGGCCCACCTGTAAGTCTGACGCGGCCCGGAGTCACCTAGTGCAG”, the binding signal is 8170 fluorescence intensity (a.u.).
For the sequence “GAGCCGGGTCGGTCTGCCGCTCTTATGGATCAACGTGCCACGGAGTCACCTAGTGCAG”, the binding signal was 3260 fluorescence intensity (a.u.).
Turning to “ATTAACTGCCAACTGTGCGCTGCTAATCTGATTTGATCCACGGAGTCACCTAGTGCAG”, the binding signal is 3520 fluorescence intensity (a.u.).
As for “GCGTACGGCATCAATTGCTGCGTGCACTCACTTGTCGTCACGGAGTCACCTAGTGCAG”, the figure is 3220 fluorescence intensity (a.u.); as for “GACTGAATGCCCACCCCTACGTGTTGAGACTTGTGAGAGGCGGAGTCACCTAGTGCAG”, 3530 fluorescence intensity (a.u.); as for “ACTCACCAAACGCATCAACTACTACCCCAAATTTTCTATCCGGAGTCACCTAGTGCAG”, 24700 fluorescence intensity (a.u.).
“CTGCGGGAGGACGGGTCCGGGGCGGGGTCCGGGTCGGTGCCGGAGTCACCTAGTGCAG”: the binding signal is 3280 fluorescence intensity (a.u.).
For the sequence “CACACTCACTATTCTAAACGCATACACGTAGCATATCTTGCGGAGTCACCTAGTGCAG”, the binding signal was 5890 fluorescence intensity (a.u.).
In the case of “TATAACGGATTCATCCGATTCCATTCCTCTGTTTACCTCTCGGAGTCACCTAGTGCAG”, the binding signal was 19300 fluorescence intensity (a.u.).
